# Data reported in the supplement of paper PMC4604168 (melanoma cell lines).
# The list shows a part of the results. Repeats are few or missing, and single values can be far off.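 Cells were imaged in 1,536-well plates, and nuclei stained with an antibody against cleaved PARP were counted against all DNA-stained nuclei to give the apoptosis fraction. Screening doses were chosen to leave most cells alive, and resting and induced cleaved-PARP levels differ strongly between cell lines.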
# Tested on: WM451Lu
# Test: cleaved PARP positive nuclei fraction relative to DMSO control; melanoma cells; higher = more apoptosis
# Conditions: library dose: low library concentration; 72 h
row,SMILES,cleaved PARP positive nuclei fraction [%]
1,"Nc1nc(F)nc2c1ncn2[C@@H]1O[C@H](CO)[C@@H](O)[C@@H]1O [fludarabine] + CCc1ccc(CCOc2ccc(CC3SC(=O)NC3=O)cc2)nc1 [pioglitazone] (first compound 0.2 µM, partner dose 2 µM)",204
2,"CS(=O)(=O)CCNCc1ccc(-c2ccc3ncnc(Nc4ccc(OCc5cccc(F)c5)c(Cl)c4)c3c2)o1 [lapatinib] + OCCn1cc(-c2cnc3nnn(Cc4ccc5ncccc5c4)c3n2)cn1 [PF04217903] (first compound 0.8 µM, partner dose 1 µM)",104
3,"CNC(=O)c1cc(Oc2ccc(NC(=O)Nc3ccc(Cl)c(C(F)(F)F)c3)cc2)ccn1 [sorafenib] + Cc1cc([N+](=O)[O-])ccc1NS(=O)(=O)c1cc(Cl)ccc1Cl [FH535] (first compound 0.4 µM, partner dose 1 µM)",67.8
4,"CN1CCN(c2ccc3nc(-c4c(N)c5c(F)cccc5[nH]c4=O)[nH]c3c2)CC1 [Dovitinib] + COc1ccc2c(c1)CCC1C2CCC2(C)C(NCCCCCCN3C(=O)C=CC3=O)CCC12 [U73122] (first compound 0.1 µM, partner dose 0.4 µM)",87.9
5,"O=C(O)[C@@H]1[O][Sb](=[O])([O][Sb]2(=[O])[O][C@H]([C@H](O)CO)[C@H](O)[C@H](C(=O)O)[O]2)[O][C@H]([C@H](O)CO)[C@@H]1O (stereo partly drawn) [stibogluconate] + COc1cc(N2CCC(N3CCN(C)CC3)CC2)ccc1Nc1ncc(Cl)c(Nc2ccccc2S(=O)(=O)C(C)C)n1 [NVP-TAE684] (first compound 2 µM, partner dose 0.08 µM)",53.8
6,"CCCS(=O)(=O)Nc1ccc(F)c(C(=O)c2c[nH]c3ncc(Cl)cc23)c1F + N#Cc1c(O)c2c(-c3ccc(-c4ccccc4O)cc3)csc2[nH]c1=O [A769662] (first compound 0.08 µM, partner dose 2 µM)",49
7,"CN1CCN(c2ccc3nc(-c4c(N)c5c(F)cccc5[nH]c4=O)[nH]c3c2)CC1 [Dovitinib] + Cc1cc(N2CCOCC2)cc2[nH]c(-c3c(NC[C@@H](O)c4cccc(Cl)c4)cc[nH]c3=O)nc12 [BMS536924] (first compound 0.1 µM, partner dose 0.2 µM)",112
8,"C[C@@H](Oc1cc(-c2cnn(C3CCNCC3)c2)cnc1N)c1c(Cl)ccc(F)c1Cl [Crizotinib] + COc1ccc(-c2ccc3c(N4CCOCC4)nc(N4C[C@@H](C)O[C@@H](C)C4)nc3n2)cc1CO [KU0063794] (first compound 0.2 µM, partner dose 0.02 µM)",70.6
9,"O=C(O)[C@@H]1[O][Sb](=[O])([O][Sb]2(=[O])[O][C@H]([C@H](O)CO)[C@H](O)[C@H](C(=O)O)[O]2)[O][C@H]([C@H](O)CO)[C@@H]1O (stereo partly drawn) [stibogluconate] + O=C(O)c1ccc(-c2c[nH]c3ncc(-c4ccccc4)cc23)cc1C1CCCC1 [GSK650394] (first compound 2 µM, partner dose 0.16 µM)",214
10,"Cn1c(=O)n(-c2ccc(C(C)(C)C#N)cc2)c2c3cc(-c4cnc5ccccc5c4)ccc3ncc21 + CCCCCCCCCCCC1=C(O)C(=O)C=C(O)C1=O [Embelin] (first compound 0.004 µM, partner dose 1.2 µM)",147
11,"CN1CCN(c2ccc3nc(-c4c(N)c5c(F)cccc5[nH]c4=O)[nH]c3c2)CC1 [Dovitinib] + NCC(=O)Nc1ccc(-n2nc(C(F)(F)F)cc2-c2ccc3c(ccc4ccccc43)c2)cc1 [OSU03012] (first compound 0.1 µM, partner dose 1 µM)",80.6
12,"C=C(c1ccc(C(=O)O)cc1)c1cc2c(cc1C)C(C)(C)CCC2(C)C [Bexarotene] + Cc1cc([N+](=O)[O-])ccc1NS(=O)(=O)c1cc(Cl)ccc1Cl [FH535] (first compound 2 µM, partner dose 1 µM)",96.8
13,"Cc1cc(Nc2cc(N3CCN(C)CC3)nc(/C=C/c3ccccc3)n2)n[nH]1 + COC(=O)c1sccc1S(=O)(=O)Nc1ccc(Nc2ccccc2)cc1OC [GSK0660] (first compound 0.04 µM, partner dose 1 µM)",145
